In the supplement of paper PMC12067093, “Discovery and optimisation of a covalent ligand for TRIM25 and its application to targeted protein ubiquitination” (Chemical Science, 2025):
The other results are listed elsewhere or left out.

Compound: CC1Cc2ccccc2N1C(=O)C1CCCN(C1)C(=O)CCl (mixture of isomers) [TRIM25 ligand 11 (diastereomer mixture)]
Assay: probe-labelled cysteine peptide fold change vs DMSO (competition) (log2 fold change); higher = less target engagement (more negative = stronger competition)
Conditions: THP-1, incubation time: 4 h
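Note: competitive chemoproteomic profiling in live THP-1 cells with an iodoacetamide desthiobiotin (IA-DTB) probe, comparing probe-labelled peptide intensities in compound-treated cells against DMSO-treated controls.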

Target | probe-labelled cysteine peptide fold change (10 µM) | probe-labelled cysteine peptide fold change (50 µM)
MITD1_Q8WV92_226+233_FSLGYCDFDLRPCHETTVDIFHK (UniProt Q8WV92) | -0.348 | -0.181
MPHOSPH8_Q99549_753_LALLEPVFPIACHR (UniProt Q99549) | 0.177 | 0.242
MGST1_P10620_50_VFANPEDCVAFGK (UniProt P10620) | 0.0582 | 0.0232
MICAL2_O94851_411_QAHQLLVALVGDSLLEPFWPMGTGCAR (UniProt O94851) | -0.201 | -0.00304
MRPL39_Q9NYK5_152_SCAMMMGCVIER (UniProt Q9NYK5) | -0.0481 | 0.0803
MRPL17_Q9NRX2_129_GNCLPPLPLPR (UniProt Q9NRX2) | -0.259 | -0.267
MOV10_Q9HCE1_564_AHILACAPSNSGADLLCQR (UniProt Q9HCE1) | 0.00542 | -0.0618
MINDY2_Q8NBR6_79_SLPDSASPAGSPEVPGPCSSSAGLDLK (UniProt Q8NBR6) | 0.105 | -0.447
MROH1_Q8NDA8_1035_DGLVHPDPAILFHTCHSVGQIIAK (UniProt Q8NDA8) | 0.125 | 0.082
MKI67_P46013_1285_ADVEGELLACR (UniProt P46013) | 0.163 | -0.17
MROH1_Q8NDA8_888_ADVIHGCLHSIMALLPEPKEEDGGCQK (UniProt Q8NDA8) | -0.104 | -0.0768
MNDA_P41218_274_KVITISDYSECK (UniProt P41218) | -0.0141 | 0.0458
MRPL16_Q9NX20_167_CEFEEVQGFLDQVAHK (UniProt Q9NX20) | -0.0709 | -0.0773
MLST8_Q9BVC4_34_FWQAHSGICTR (UniProt Q9BVC4) | -0.0292 | 0.153
MRC2_Q9UBG0_1234_TTSCDTK (UniProt Q9UBG0) | 0.0668 | 0.0519
MORC3_Q14149_744_ETCHQSTETDAVFLLESINGK (UniProt Q14149) | 0.143 | -0.605
MICAL2_O94851_1059_PHFIHCK (UniProt O94851) | 0.00568 | 0.0284
MICALL1_Q8N3F8_194_CSSTLLPGAYENGPEEGTFVCAEHCAR (UniProt Q8N3F8) | 0.154 | -0.0569
MRC2_Q9UBG0_481_DSLEDCVTIWGPEGR (UniProt Q9UBG0) | 0.507 | 0.405
MRC2_Q9UBG0_1107_SCTEETHGFICQK (UniProt Q9UBG0) | 0.0976 | -0.115
MIER1_Q8N108_293_EELSVWTEEECRNFEQGLK (UniProt Q8N108) | -0.251 | -0.158

Target | probe-labelled cysteine peptide fold change (10 µM) | probe-labelled cysteine peptide fold change (50 µM)
MKNK1_Q9BUB5_101_EVETLYQCQGNK (UniProt Q9BUB5) | 0.0574 | 0.0595
MON2_Q7Z3U7_1033_LGELCVDPR (UniProt Q7Z3U7) | -4.04e-05 | 0.00112
MGST1_P10620_50_VFANPEDCVAFGKGENAKK (UniProt P10620) | -0.506 | -0.196
MRNIP_Q6NTE8_300_ATHPVTSGSERPCGK (UniProt Q6NTE8) | -0.0708 | -0.356
MKLN1_Q9UL63_460_IGHCMLFHSK (UniProt Q9UL63) | -0.0053 | -0.00994
MGST1_P10620_50_KVFANPEDCVAFGK (UniProt P10620) | 0.00983 | 0.0793
MORC3_Q14149_15_LSALCPK (UniProt Q14149) | -0.151 | -0.136
MLH1_P40692_233_ELIEIGCEDK (UniProt P40692) | 0.0724 | 0.035
MPHOSPH8_Q99549_99_GYTSDDDTWEPEIHLEDCK (UniProt Q99549) | 0.111 | 0.306
MRPL37_Q9BZE1_268_NHVLETFYPISPIIDLHECNIYDVK (UniProt Q9BZE1) | 0.13 | 0.012
MORC3_Q14149_717_QCHMFTDQIK (UniProt Q14149) | -0.0943 | 0.000884
MRPL38_Q96DV4_321_KHQETMTPAGLSFFQCR (UniProt Q96DV4) | 0.00503 | 0.134
MKLN1_Q9UL63_582_SLQEEEPCPR (UniProt Q9UL63) | 0.00509 | -0.115
MMACHC_Q9Y4U1_82_MLTDPVDQCVAYHLGR (UniProt Q9Y4U1) | 0.049 | 0.123
MGA_Q8IWI9_355_QEISECLIASSFEDDSR (UniProt Q8IWI9) | -0.309 | -0.16
MRPL37_Q9BZE1_177_ETYCPVIVDNLIQLCK (UniProt Q9BZE1) | 0.141 | 0.029
MNDA_P41218_385_LVCGSHSFIK (UniProt P41218) | 0.0242 | 0.129
MPDU1_O75352_37_CYDQLFVQWDLLHVPCLK (UniProt O75352) | -0.0439 | 0.143
MMP14_P50281_127_WQHNEITFCIQNYTPK (UniProt P50281) | -0.0624 | 0.12
MRPL27_Q9P0M9_88_CLYALEEGIVR (UniProt Q9P0M9) | -0.126 | 0.0351
MRPL32_Q9BYC8_110+113_NNIDVCPECGHLK (UniProt Q9BYC8) | -0.0513 | 0.0174

Already shown: an excerpt of the list.
Target | probe-labelled cysteine peptide fold change (10 µM) | probe-labelled cysteine peptide fold change (50 µM)
MRPL39_Q9NYK5_152_SCAMMMGCVIER (UniProt Q9NYK5) | -0.0481 | 0.0803
MRPL17_Q9NRX2_129_GNCLPPLPLPR (UniProt Q9NRX2) | -0.259 | -0.267
MOV10_Q9HCE1_564_AHILACAPSNSGADLLCQR (UniProt Q9HCE1) | 0.00542 | -0.0618
MINDY2_Q8NBR6_79_SLPDSASPAGSPEVPGPCSSSAGLDLK (UniProt Q8NBR6) | 0.105 | -0.447
MROH1_Q8NDA8_1035_DGLVHPDPAILFHTCHSVGQIIAK (UniProt Q8NDA8) | 0.125 | 0.082
MKI67_P46013_1285_ADVEGELLACR (UniProt P46013) | 0.163 | -0.17
MROH1_Q8NDA8_888_ADVIHGCLHSIMALLPEPKEEDGGCQK (UniProt Q8NDA8) | -0.104 | -0.0768
MNDA_P41218_274_KVITISDYSECK (UniProt P41218) | -0.0141 | 0.0458
MRPL16_Q9NX20_167_CEFEEVQGFLDQVAHK (UniProt Q9NX20) | -0.0709 | -0.0773
MLST8_Q9BVC4_34_FWQAHSGICTR (UniProt Q9BVC4) | -0.0292 | 0.153
MRC2_Q9UBG0_1234_TTSCDTK (UniProt Q9UBG0) | 0.0668 | 0.0519
MORC3_Q14149_744_ETCHQSTETDAVFLLESINGK (UniProt Q14149) | 0.143 | -0.605
MICAL2_O94851_1059_PHFIHCK (UniProt O94851) | 0.00568 | 0.0284
MICALL1_Q8N3F8_194_CSSTLLPGAYENGPEEGTFVCAEHCAR (UniProt Q8N3F8) | 0.154 | -0.0569
MRC2_Q9UBG0_481_DSLEDCVTIWGPEGR (UniProt Q9UBG0) | 0.507 | 0.405
MRC2_Q9UBG0_1107_SCTEETHGFICQK (UniProt Q9UBG0) | 0.0976 | -0.115
MIER1_Q8N108_293_EELSVWTEEECRNFEQGLK (UniProt Q8N108) | -0.251 | -0.158
MKNK1_Q9BUB5_101_EVETLYQCQGNK (UniProt Q9BUB5) | 0.0574 | 0.0595

The listing continues:

Target | probe-labelled cysteine peptide fold change (10 µM) | probe-labelled cysteine peptide fold change (50 µM)
MMS19_Q96T76_502_EDSQSCR (UniProt Q96T76) | -0.0672 | 0.0671
MIPEP_Q99797_142_EAAEEACR (UniProt Q99797) | 0.115 | 0.0923
MRC2_Q9UBG0_201_YDNQWFHGCTSTGR (UniProt Q9UBG0) | -0.768 | -1.05
MICAL1_Q8TDZ2_727+747_CHTCEATLWPGGYEQHPGDGHFYCLQHLPQTDHK (UniProt Q8TDZ2) | 0.162 | -0.0657
MIER1_Q8N108_263_CNFDTEEALRR (UniProt Q8N108) | 0.186 | 0.152
MKI67_P46013_1251_IPCDSPQSDPVDTPTSTK (UniProt P46013) | -0.149 | -0.226
MRPL11_Q9Y3B7_50_GVSINQFCK (UniProt Q9Y3B7) | -0.157 | -0.264
MLKL_Q8NB16_184_CMQEIPQEQIK (UniProt Q8NB16) | -0.285 | -0.33
MIOS_Q9NXC5_621_VAFACK (UniProt Q9NXC5) | -0.0547 | 0.0123
MLH1_P40692_77_EDLDIVCER (UniProt P40692) | 0.128 | 0.189
MOB4_Q9Y3A3_51_ADCSNIDK (UniProt Q9Y3A3) | -0.0779 | 0.00201
MRC2_Q9UBG0_532_KGWTWHSPSCYWLGEDQVTYSEAR (UniProt Q9UBG0) | -0.0488 | -0.275
MKLN1_Q9UL63_82_THVCNLKK (UniProt Q9UL63) | -0.192 | -0.221
MORC3_Q14149_797+800_AECSQCSNNESK (UniProt Q14149) | -0.0151 | 0.0457
MOSPD2_Q8NHP6_471_TSEDICLQLSR (UniProt Q8NHP6) | 0.0227 | -0.24
MIS18BP1_Q6P0N0_528_ATTTYDFDCDNLELK (UniProt Q6P0N0) | -0.0826 | 0.0461
MRPL36_Q9P0J6_92_WYVYCK (UniProt Q9P0J6) | 0.00972 | 0.0844
MPHOSPH10_O00566_27_ATGRPECFLTIQEGLASK (UniProt O00566) | 0.0116 | -0.0696
MLH1_P40692_672_ECFESLSK (UniProt P40692) | 0.115 | -0.00526
MOB4_Q9Y3A3_92_LQSECHPDTCTQMTATEQWIFLCAAHK (UniProt Q9Y3A3) | 0.0539 | -0.0547
MPI_P34949_309_FIDVPTLCEMLSYTPSSSK (UniProt P34949) | -0.12 | 0.0295

Target | probe-labelled cysteine peptide fold change (10 µM) | probe-labelled cysteine peptide fold change (50 µM)
MMS19_Q96T76_750_ELLELSCCHSCPFSSTAAAK (UniProt Q96T76) | 0.152 | -0.12
MKI67_P46013_35_GIECDIR (UniProt P46013) | 0.109 | 0.259
MMADHC_Q9H3L0_52_AFSTAGSSGSDESHVAAAPPDICSR (UniProt Q9H3L0) | 0.127 | -0.237
MRPL21_Q7Z2W9_124_VTSEDLILIGNELDLACGER (UniProt Q7Z2W9) | 0.0288 | 0.119
MMS19_Q96T76_331_EVFQTASERVEAEGLAALHSLTACLSR (UniProt Q96T76) | -0.133 | 0.139
MKI67_P46013_773_EQPQLTSTCHIAISNSENLLGK (UniProt P46013) | 0.234 | -0.0412
MIF_P14174_57_ASVPDGFLSELTQQLAQATGKPPQYIAVHVVPDQLMAFGGSSEPCALCSLHSIGK (UniProt P14174) | -0.257 | -0.285
MRC2_Q9UBG0_950_CLTALPYICK (UniProt Q9UBG0) | 0.0157 | 0.223
MPHOSPH9_Q99550_647_CGQLDSALHEATSR (UniProt Q99550) | -0.0776 | -0.051
MIEF1_Q9NQG6_111_SLQTLPTDSSTFDTDTFCPPRPK (UniProt Q9NQG6) | 0.134 | 0.0554
MKI67_P46013_27_SGVDGPHFPLSLSTCLFGR (UniProt P46013) | -0.0683 | -0.123
MRC2_Q9UBG0_532_GWTWHSPSCYWLGEDQVTYSEAR (UniProt Q9UBG0) | 0.235 | 0.09
MNDA_P41218_61_FQGVACLDK (UniProt P41218) | -0.0164 | -0.0415
MPG_P29372_222_LCQALAINK (UniProt P29372) | -0.19 | -0.0993
MOB4_Q9Y3A3_78_QFCLELNGLAVK (UniProt Q9Y3A3) | -0.0422 | 0.0286
MMP14_P50281_574_RLLYCQR (UniProt P50281) | -0.106 | -0.136
MPC2_O95563_54_WGLVCAGLADMARPAEK (UniProt O95563) | -0.137 | -0.307
MKI67_P46013_1479_ELFQTPVCTDKPTTHEK (UniProt P46013) | -0.193 | -0.454
MRPL10_Q7Z7H8_180_TVPFLPLLGGCIDDTILSR (UniProt Q7Z7H8) | -0.00605 | -0.0273
MMS19_Q96T76_819_YHPLSSCLTAR (UniProt Q96T76) | -0.168 | 0.19
MGRN1_O60291_528_AASIENVLQDSSPEHCGR (UniProt O60291) | -0.0357 | -0.421
